In assay [1] the target is Ubiquilin-2, wild type (human (endogenous in iPSCs and iMNs)) (UniProt Q9UHD9). The assay can be described thus: affinity purification with mass spectrometry; endogenous UBQLN2 immunoprecipitated with UBQLN2 antibodies and Dynabeads Protein G from the soluble fraction (1% CHAPS buffer) of iMNs; label-free quantitative MS.
Assay [2] deals with Ubiquilin-2 4XALS (P497H, P506T, P509S, P525S) (human (endogenous in iPSCs and iMNs)) (UniProt Q9UHD9). The assay is described as above.
For assay [3] the target is unchanged. In words: affinity purification with mass spectrometry; endogenous UBQLN2 immunoprecipitated with UBQLN2 antibodies and Dynabeads Protein G from the soluble fraction (1% CHAPS buffer) of iPSCs, basal or after heat stress (42 °C, 1 h); label-free quantitative MS; UBQLN2^I498X cells as control.
Assay [4] deals with Ubiquilin-2, wild type (human (endogenous in iPSCs and iMNs)) (UniProt Q9UHD9). The assay is described as above.
For assay [5] the target is unchanged. The assay is described as above. This is another data set of the same source.
For assay [6], the target named is Ubiquilin-2 P497H (human (endogenous in iPSCs and iMNs)) (UniProt Q9UHD9). The assay is described as above.
Assay [7] has as its target Ubiquilin-2 4XALS (P497H, P506T, P509S, P525S) (human (endogenous in iPSCs and iMNs)) (UniProt Q9UHD9). The description is as above. This is another data set of the same source.
The target of assay [8] is Ubiquilin-2, wild type (human (endogenous in iPSCs and iMNs)) (UniProt Q9UHD9). In words: affinity purification with mass spectrometry; as a1, iPSCs after heat stress (42 °C, 1 h) only.
Assay [9] has as its target Ubiquilin-2 P497H (human (endogenous in iPSCs and iMNs)) (UniProt Q9UHD9). The assay can be described thus: affinity purification with mass spectrometry; endogenous UBQLN2 immunoprecipitated with UBQLN2 antibodies and Dynabeads Protein G from the soluble fraction (1% CHAPS buffer) of iMNs; label-free quantitative MS.

By UniProt entry, the sequences of proteins in these tests, tags left out.
UniProt Q07812: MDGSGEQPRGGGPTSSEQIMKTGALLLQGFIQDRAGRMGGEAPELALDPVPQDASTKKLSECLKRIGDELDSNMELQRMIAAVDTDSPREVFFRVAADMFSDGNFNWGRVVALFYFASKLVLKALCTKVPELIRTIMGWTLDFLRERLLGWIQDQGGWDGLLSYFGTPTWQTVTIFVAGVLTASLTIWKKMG
UniProt P46379: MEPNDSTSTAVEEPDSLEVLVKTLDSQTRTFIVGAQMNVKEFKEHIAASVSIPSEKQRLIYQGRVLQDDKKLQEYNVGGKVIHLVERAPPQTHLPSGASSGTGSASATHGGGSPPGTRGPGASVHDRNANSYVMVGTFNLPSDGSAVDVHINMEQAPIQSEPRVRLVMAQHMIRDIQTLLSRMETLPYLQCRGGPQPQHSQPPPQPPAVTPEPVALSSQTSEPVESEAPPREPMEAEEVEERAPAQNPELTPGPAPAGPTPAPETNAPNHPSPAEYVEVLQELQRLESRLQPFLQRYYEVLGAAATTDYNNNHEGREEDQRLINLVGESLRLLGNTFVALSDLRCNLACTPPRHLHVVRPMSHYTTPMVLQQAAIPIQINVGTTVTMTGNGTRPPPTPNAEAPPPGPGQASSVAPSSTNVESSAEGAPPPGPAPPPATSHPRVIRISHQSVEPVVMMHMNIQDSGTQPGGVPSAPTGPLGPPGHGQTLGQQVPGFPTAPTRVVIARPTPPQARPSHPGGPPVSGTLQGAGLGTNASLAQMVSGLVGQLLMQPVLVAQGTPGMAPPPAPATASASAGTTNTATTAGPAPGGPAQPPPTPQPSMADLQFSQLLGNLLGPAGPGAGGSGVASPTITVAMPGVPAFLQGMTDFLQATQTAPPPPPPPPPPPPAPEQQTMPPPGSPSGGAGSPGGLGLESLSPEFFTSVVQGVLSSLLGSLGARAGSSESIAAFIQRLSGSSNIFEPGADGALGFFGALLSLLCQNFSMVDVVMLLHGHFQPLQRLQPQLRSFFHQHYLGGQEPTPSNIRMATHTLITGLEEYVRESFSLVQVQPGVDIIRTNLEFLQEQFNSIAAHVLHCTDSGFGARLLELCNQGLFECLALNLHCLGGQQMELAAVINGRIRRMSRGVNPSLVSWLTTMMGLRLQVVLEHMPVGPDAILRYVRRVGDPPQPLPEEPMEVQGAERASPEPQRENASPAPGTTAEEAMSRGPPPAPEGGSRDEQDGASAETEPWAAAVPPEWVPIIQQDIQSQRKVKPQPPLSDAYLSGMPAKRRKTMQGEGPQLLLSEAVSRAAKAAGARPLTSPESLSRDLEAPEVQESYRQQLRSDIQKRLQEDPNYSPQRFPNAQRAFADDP
UniProt Q8N0U8: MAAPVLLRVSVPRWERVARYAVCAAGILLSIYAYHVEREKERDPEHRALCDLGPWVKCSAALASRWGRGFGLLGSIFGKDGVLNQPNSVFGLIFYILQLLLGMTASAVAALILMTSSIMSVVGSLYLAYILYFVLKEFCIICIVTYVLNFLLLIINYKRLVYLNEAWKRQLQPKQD
UniProt Q01484: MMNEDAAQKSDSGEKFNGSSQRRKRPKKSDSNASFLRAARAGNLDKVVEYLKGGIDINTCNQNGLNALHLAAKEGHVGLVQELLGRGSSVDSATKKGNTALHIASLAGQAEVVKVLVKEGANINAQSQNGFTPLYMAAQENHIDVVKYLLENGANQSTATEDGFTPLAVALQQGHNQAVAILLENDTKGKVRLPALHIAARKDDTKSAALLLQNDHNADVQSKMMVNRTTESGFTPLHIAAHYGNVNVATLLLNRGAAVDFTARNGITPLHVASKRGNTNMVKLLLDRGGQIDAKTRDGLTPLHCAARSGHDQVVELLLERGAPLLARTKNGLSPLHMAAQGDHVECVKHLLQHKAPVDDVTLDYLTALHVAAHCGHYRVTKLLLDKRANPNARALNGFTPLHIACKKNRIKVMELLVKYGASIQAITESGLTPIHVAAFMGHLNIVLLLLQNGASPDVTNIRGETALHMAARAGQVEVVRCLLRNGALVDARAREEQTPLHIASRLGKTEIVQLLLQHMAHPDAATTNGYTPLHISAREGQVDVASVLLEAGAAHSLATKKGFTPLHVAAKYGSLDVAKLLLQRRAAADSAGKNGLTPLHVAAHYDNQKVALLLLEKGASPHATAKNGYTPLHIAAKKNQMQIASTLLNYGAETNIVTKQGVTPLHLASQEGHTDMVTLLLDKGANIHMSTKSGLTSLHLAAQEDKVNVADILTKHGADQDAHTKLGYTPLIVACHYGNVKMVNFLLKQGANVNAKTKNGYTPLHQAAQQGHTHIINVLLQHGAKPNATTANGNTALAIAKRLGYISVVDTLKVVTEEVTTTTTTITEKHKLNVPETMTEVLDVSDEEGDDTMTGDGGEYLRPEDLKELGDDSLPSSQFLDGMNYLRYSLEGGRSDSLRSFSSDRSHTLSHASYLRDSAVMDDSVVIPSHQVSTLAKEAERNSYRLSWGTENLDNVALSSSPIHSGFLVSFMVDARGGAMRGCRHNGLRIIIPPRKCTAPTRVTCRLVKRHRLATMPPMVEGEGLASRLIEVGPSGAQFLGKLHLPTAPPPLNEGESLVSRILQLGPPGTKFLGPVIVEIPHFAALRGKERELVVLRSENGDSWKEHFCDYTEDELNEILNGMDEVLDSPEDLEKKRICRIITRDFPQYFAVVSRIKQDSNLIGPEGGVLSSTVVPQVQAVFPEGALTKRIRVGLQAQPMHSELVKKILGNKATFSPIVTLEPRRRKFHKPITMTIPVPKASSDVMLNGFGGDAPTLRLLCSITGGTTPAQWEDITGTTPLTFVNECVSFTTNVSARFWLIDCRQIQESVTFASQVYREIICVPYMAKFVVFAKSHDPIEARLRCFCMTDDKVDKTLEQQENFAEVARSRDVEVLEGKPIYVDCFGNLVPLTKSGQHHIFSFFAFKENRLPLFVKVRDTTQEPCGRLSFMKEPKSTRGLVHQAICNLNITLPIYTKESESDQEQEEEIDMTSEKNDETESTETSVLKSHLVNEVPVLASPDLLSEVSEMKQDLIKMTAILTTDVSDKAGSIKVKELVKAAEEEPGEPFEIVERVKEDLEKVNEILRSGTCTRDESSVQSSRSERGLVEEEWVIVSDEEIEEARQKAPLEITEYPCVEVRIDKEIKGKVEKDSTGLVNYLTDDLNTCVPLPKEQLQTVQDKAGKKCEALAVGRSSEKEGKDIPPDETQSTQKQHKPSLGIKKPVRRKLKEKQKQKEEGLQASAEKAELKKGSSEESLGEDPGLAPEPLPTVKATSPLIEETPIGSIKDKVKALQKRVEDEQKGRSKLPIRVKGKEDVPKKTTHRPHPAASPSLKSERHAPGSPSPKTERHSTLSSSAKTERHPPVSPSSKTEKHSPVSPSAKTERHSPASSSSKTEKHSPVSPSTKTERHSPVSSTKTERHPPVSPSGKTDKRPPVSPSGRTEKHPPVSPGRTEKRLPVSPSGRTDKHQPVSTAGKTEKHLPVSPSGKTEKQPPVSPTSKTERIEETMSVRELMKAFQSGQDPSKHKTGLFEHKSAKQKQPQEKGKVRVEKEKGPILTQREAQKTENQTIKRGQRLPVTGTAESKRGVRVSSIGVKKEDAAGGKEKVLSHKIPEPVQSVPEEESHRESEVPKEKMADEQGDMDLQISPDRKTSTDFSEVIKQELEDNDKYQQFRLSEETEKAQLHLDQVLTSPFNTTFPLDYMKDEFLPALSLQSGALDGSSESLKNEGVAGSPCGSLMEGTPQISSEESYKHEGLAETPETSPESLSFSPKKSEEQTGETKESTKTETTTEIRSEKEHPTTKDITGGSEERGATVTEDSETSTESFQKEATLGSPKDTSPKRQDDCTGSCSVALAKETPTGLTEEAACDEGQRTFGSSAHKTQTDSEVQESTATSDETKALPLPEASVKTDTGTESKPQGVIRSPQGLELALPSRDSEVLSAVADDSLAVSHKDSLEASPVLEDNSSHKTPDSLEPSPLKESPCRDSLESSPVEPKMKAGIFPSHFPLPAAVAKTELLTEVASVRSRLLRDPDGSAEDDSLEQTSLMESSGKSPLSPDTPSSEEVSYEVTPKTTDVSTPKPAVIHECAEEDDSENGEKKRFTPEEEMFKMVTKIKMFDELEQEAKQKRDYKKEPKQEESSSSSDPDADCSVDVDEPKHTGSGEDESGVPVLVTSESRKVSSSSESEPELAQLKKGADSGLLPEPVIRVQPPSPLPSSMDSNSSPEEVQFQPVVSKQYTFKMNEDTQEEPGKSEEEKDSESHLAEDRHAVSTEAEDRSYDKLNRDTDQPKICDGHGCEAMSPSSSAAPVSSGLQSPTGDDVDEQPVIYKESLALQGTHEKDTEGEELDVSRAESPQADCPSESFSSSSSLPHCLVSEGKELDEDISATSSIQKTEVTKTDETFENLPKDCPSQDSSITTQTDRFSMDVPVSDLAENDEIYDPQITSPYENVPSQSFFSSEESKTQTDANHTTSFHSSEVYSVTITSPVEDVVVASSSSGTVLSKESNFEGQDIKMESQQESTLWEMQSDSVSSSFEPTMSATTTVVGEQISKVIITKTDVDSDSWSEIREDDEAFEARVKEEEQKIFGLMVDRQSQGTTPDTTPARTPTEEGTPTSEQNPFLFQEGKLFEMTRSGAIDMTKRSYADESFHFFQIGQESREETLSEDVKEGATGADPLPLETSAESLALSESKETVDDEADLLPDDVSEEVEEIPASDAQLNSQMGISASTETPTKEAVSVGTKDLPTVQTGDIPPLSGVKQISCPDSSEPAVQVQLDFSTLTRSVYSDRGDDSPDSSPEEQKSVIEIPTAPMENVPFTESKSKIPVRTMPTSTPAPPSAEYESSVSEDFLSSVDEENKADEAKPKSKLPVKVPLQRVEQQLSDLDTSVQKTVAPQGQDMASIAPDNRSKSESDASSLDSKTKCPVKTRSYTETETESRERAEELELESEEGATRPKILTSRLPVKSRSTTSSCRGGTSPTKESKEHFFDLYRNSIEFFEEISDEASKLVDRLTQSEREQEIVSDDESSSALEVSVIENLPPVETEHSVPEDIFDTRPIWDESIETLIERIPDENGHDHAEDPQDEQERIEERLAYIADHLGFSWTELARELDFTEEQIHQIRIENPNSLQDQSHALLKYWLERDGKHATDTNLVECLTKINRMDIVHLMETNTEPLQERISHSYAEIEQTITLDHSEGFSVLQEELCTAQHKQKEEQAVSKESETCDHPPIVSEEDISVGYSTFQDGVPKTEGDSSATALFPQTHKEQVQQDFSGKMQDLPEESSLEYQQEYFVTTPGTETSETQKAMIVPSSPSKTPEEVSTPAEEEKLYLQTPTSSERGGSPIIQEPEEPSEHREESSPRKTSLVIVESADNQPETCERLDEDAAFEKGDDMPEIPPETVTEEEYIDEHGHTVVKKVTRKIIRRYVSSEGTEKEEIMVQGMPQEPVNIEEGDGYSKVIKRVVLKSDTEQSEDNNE

These are yes or no findings as the source states them, for the method shown. Binding seen in cells or lysates may run through a third protein. These calls come from enrichment with a bait or labelling near it, and not all partners need be listed. For some assays here: No binding means not detected with the bait.

From article PMC12813162 come the findings set out here.

On to BAX (from UniProt Q07812 1-192), for which the binding result in [1] was “binds”. On to “BCL2-associated athanogene 6 (from UniProt P46379 1-1132)”, for which the binding result in assay [2] and in assay [3] was “binds” throughout.

As for VKORC1L1 (from UniProt Q8N0U8 1-176), in assay [4], the binding result is given as “binds”. As for VKORC1 (from UniProt Q9BQB6 1-163), the binding entry in [4] was “binds”. With ANK2 (from UniProt Q01484 1-3957), the binding entry in assay [3] is “binds”.

B1: BTBD2 (protein, UniProt Q9BX70 1-525)
chain: MAAGGSGGRASCPPGVGVGPGTGGSPGPSANAAATPAPGNAAAAAAAAAAAAAAPGPTPPAPPGPGTDAQAAGAERAEEAAGPGAAALQREAAYNWQASKPTVQERFAFLFNNEVLCDVHFLVGKGLSSQRIPAHRFVLAVGSAVFDAMFNGGMATTSTEIELPDVEPAAFLALLKFLYSDEVQIGPETVMTTLYTAKKYAVPALEAHCVEFLKKNLRADNAFMLLTQARLFDEPQLASLCLENIDKNTADAITAEGFTDIDLDTLVAVLERDTLGIREVRLFNAVVRWSEAECQRQQLQVTPENRRKVLGKALGLIRFPLMTIEEFAAGPAQSGILVDREVVSLFLHFTVNPKPRVEFIDRPRCCLRGKECSINRFQQVESRWGYSGTSDRIRFSVNKRIFVVGFGLYGSIHGPTDYQVNIQIIHTDSNTVLGQNDTGFSCDGSASTFRVMFKEPVEVLPNVNYTACATLKGPDSHYGTKGLRKVTHESPTTGAKTCFTFCYAAGNNNGTSVEDGQIPEVIFYT
As for B1, the binding result in assay [2] was “binds”.

B2: HYOU1 (protein, UniProt Q9Y4L1 33-999)
chain: LAVMSVDLGSESMKVAIVKPGVPMEIVLNKESRRKTPVIVTLKENERFFGDSAASMAIKNPKATLRYFQHLLGKQADNPHVALYQARFPEHELTFDPQRQTVHFQISSQLQFSPEEVLGMVLNYSRSLAEDFAEQPIKDAVITVPVFFNQAERRAVLQAARMAGLKVLQLINDNTATALSYGVFRRKDINTTAQNIMFYDMGSGSTVCTIVTYQMVKTKEAGMQPQLQIRGVGFDRTLGGLEMELRLRERLAGLFNEQRKGQRAKDVRENPRAMAKLLREANRLKTVLSANADHMAQIEGLMDDVDFKAKVTRVEFEELCADLFERVPGPVQQALQSAEMSLDEIEQVILVGGATRVPRVQEVLLKAVGKEELGKNINADEAAAMGAVYQAAALSKAFKVKPFVVRDAVVYPILVEFTREVEEEPGIHSLKHNKRVLFSRMGPYPQRKVITFNRYSHDFNFHINYGDLGFLGPEDLRVFGSQNLTTVKLKGVGDSFKKYPDYESKGIKAHFNLDESGVLSLDRVESVFETLVEDSAEEESTLTKLGNTISSLFGGGTTPDAKENGTDTVQEEEESPAEGSKDEPGEQVELKEEAEAPVEDGSQPPPPEPKGDATPEGEKATEKENGDKSEAQKPSEKAEAGPEGVAPAPEGEKKQKPARKRRMVEEIGVELVVLDLPDLPEDKLAQSVQKLQDLTLRDLEKQEREKAANSLEAFIFETQDKLYQPEYQEVSTEEQREEISGKLSAASTWLEDEGVGATTVMLKEKLAELRKLCQGLFFRVEERKKWPERLSALDNLLNHSSMFLKGARLIPEMDQIFTEVEMTTLEKVINETWAWKNATLAEQAKLPATEKPVLLSKDIEAKMMALDREVQYLLNKAKFTKPRPRPKDKNGTRAEPPLNASASDQGEKVIPPAGQTEDAEPISEPEKVETGSEPGDTEPLELGGPGAEPEQKEQSTGQKRPLKNDEL
With B2, the binding result in assay [5] was “binds”; in assay [6], “binds”; in assay [7], “binds”; in assay [8], “no binding (only after heat stress (42 °C, 1 h))”.

B3: UBL4A (protein, UniProt P11441 1-157)
chain: MQLTVKALQGRECSLQVPEDELVSTLKQLVSEKLNVPVRQQRLLFKGKALADGKRLSDYSIGPNSKLNLVVKPLEKVLLEEGEAQRLADSPPPQVWQLISKVLARHFSAADASRVLEQLQRDYERSLSRLTLDDIERLASRFLHPEVTETMEKGFSK
As for B3, the binding result in assay [6], in assay [7], in [9] and in assay [2] was “no binding” throughout.

B4: paternally expressed gene 10 (protein, UniProt Q86TG7 1-708)
chain: MTERRRDELSEEINNLREKVMKQSEENNNLQSQVQKLTEENTTLREQVEPTPEDEDDDIELRGAAAAAAPPPPIEEECPEDLPEKFDGNPDMLAPFMAQCQIFMEKSTRDFSVDRVRVCFVTSMMTGRAARWASAKLERSHYLMHNYPAFMMEMKHVFEDPQRREVAKRKIRRLRQGMGSVIDYSNAFQMIAQDLDWNEPALIDQYHEGLSDHIQEELSHLEVAKSLSALIGQCIHIERRLARAAAARKPRSPPRALVLPHIASHHQVDPTEPVGGARMRLTQEEKERRRKLNLCLYCGTGGHYADNCPAKASKSSPAGKLPGPAVEGPSATGPEIIRSPQDDASSPHLQVMLQIHLPGRHTLFVRAMIDSGASGNFIDHEYVAQNGIPLRIKDWPILVEAIDGRPIASGPVVHETHDLIVDLGDHREVLSFDVTQSPFFPVVLGVRWLSTHDPNITWSTRSIVFDSEYCRYHCRMYSPIPPSLPPPAPQPPLYYPVDGYRVYQPVRYYYVQNVYTPVDEHVYPDHRLVDPHIEMIPGAHSIPSGHVYSLSEPEMAALRDFVARNVKDGLITPTIAPNGAQVLQVKRGWKLQVSYDCRAPNNFTIQNQYPRLSIPNLEDQAHLATYTEFVPQIPGYQTYPTYAAYPTYPVGFAWYPVGRDGQGRSLYVPVMITWNPHWYRQPPVPQYPPPQPPPPPPPPPPPPSYSTL
For B4, in assay [7], the binding entry is given as “binds”.

B5: FAM168A (protein, UniProt Q92567 1-244)
chain: MNPVYSPVQPGAPYGNPKNMAYTGYPTAYPAAAPAYNPSLYPTNSPSYAPEFQFLHSAYATLLMKQAWPQNSSSCGTEGTFHLPVDTGTENRTYQASSAAFRYTAGTPYKVPPTQSNTAPPPYSPSPNPYQTAMYPIRSAYPQQNLYAQGAYYTQPVYAAQPHVIHHTTVVQPNSIPSAIYPAPVAAPRTNGVAMGMVAGTTMAMSAGTLLTTPQHTAIGAHPVSMPTYRAQGTPAYSYVPPHW
In the case of B5, the binding entry in assay [2] is listed as “binds”.
